Data taken from article PMC5766568 (Scientific Reports, 2018).

Tests used:
ROS/singlet oxygen = assay: Flow cytometry of ROS/singlet oxygen production with APF sensor; type: cell-based; conditions: from flow cytometry data of the PNA conjugates, corrected for extinction coefficients at irradiation wavelength (155000 AF555, 92000 TMR cm^−1 M^−1)

| Compound | final purity (method not given) (peptide synthesis; conjugation step) [%] | further results |
| --- | --- | --- |
| H-(D-Arg)8-Cys(AF488)-CCT CTT ACC TCA GTT ACA-NH2 | 98 |  |
| H-(D-Arg)8-Cys(Flm)-CCT CTT ACC TCA GTT ACA-NH2 | 98 |  |
| H-(D-Arg)8-Cys(AF555)-CCT CTT ACC TCA GTT ACA-NH2 | 98 |  |
| TAT-Lys(Deca)-Gly- CCT CTT ACC TCA GTT ACA-NH2 |  | final purity (method not given) (peptide synthesis; whole synthesis): 98% |
| H- (D-Arg)8-Gly- CCT CTT ACC TCA GTT ACA-NH2 |  | final purity (method not given) (peptide synthesis; whole synthesis): 96% |
| H-(D-Arg)8-Cys(TMR)-CCT CTT ACC TCA GTT ACA-NH2 | 97 |  |
| CN(C)c1ccc2c(-c3ccccc3C(=O)[O-])c3ccc(N(C)C)cc3[o+]c2c1 [TMR fluorophore, Tetramethylrhodamine] |  | quantum yield for singlet oxygen formation, TMR compared to AF555 (ROS/singlet oxygen): 1.6 fold |
